According to the supplement of paper PMC11006884:
The list shows a part of the results, in another mix than the full data.

Amino acid sequences for entries named in this document (tags omitted). A change or cut given only in a name is not applied to a line headed by its entry.
UniProt P33176: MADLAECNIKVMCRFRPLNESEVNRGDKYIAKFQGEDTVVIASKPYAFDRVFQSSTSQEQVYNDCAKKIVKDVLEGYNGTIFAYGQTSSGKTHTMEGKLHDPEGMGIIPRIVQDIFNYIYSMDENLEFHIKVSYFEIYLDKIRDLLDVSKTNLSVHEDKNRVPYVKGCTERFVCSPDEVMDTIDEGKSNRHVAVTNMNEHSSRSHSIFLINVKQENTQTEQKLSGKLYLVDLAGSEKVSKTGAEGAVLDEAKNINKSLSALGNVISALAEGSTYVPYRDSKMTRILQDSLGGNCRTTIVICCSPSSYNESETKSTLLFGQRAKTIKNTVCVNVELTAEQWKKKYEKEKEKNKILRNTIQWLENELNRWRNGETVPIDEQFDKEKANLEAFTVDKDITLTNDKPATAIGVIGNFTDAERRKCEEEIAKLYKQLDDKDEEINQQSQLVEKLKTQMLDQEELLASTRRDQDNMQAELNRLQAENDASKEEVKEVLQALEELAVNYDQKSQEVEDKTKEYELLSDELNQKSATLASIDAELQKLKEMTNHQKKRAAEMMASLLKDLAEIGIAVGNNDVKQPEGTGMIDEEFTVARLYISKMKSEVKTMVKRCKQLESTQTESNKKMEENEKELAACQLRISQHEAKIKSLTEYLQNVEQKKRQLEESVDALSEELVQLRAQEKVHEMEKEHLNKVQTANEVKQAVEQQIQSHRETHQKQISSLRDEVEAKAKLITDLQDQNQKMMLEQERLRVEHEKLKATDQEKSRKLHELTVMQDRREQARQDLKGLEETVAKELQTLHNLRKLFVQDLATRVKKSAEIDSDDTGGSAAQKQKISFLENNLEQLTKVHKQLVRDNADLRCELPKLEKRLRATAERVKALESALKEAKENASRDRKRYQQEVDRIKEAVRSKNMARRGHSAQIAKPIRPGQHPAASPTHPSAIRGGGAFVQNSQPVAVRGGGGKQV
UniProt P35249, whole entry: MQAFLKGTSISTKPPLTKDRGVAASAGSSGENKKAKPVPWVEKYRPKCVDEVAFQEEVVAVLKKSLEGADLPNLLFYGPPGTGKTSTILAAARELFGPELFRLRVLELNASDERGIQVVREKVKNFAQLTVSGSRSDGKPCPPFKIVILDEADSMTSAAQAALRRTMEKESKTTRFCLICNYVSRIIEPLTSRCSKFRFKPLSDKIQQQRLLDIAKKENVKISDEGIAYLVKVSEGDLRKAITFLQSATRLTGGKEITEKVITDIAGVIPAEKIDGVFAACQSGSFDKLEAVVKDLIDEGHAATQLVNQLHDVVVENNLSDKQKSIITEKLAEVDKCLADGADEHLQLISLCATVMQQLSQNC
UniProt P41252: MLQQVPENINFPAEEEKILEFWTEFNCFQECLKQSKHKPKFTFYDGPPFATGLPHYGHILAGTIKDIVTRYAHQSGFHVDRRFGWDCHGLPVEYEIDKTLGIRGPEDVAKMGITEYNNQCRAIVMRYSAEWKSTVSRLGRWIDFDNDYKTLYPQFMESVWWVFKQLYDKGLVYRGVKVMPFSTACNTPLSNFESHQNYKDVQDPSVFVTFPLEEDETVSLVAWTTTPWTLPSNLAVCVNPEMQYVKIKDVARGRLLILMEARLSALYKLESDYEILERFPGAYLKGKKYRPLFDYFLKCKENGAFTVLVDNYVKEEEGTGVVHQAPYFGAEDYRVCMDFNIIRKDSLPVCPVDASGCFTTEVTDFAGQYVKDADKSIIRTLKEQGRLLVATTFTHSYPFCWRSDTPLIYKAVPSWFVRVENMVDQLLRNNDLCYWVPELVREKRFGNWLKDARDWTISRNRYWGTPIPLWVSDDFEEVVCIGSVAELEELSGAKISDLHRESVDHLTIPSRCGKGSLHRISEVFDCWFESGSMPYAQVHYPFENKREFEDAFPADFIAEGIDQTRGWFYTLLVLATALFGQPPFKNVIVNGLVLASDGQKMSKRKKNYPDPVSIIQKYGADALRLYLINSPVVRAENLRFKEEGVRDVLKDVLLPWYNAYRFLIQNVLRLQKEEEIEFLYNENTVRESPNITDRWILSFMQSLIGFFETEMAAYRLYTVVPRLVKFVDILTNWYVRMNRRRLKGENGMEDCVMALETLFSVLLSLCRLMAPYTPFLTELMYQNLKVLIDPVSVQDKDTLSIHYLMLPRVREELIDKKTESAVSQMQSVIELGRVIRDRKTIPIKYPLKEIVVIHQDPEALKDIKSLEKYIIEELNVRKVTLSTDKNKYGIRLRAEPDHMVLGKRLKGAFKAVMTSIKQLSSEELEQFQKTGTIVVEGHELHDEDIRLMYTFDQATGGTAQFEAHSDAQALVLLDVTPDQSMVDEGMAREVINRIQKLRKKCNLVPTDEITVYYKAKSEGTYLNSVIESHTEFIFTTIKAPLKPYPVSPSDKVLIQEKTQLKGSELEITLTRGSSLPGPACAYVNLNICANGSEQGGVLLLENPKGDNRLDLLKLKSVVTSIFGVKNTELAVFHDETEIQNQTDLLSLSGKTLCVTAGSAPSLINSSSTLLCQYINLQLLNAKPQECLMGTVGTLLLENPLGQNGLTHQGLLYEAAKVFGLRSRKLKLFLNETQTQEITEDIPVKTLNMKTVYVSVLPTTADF
UniProt P35579, whole entry, looked up: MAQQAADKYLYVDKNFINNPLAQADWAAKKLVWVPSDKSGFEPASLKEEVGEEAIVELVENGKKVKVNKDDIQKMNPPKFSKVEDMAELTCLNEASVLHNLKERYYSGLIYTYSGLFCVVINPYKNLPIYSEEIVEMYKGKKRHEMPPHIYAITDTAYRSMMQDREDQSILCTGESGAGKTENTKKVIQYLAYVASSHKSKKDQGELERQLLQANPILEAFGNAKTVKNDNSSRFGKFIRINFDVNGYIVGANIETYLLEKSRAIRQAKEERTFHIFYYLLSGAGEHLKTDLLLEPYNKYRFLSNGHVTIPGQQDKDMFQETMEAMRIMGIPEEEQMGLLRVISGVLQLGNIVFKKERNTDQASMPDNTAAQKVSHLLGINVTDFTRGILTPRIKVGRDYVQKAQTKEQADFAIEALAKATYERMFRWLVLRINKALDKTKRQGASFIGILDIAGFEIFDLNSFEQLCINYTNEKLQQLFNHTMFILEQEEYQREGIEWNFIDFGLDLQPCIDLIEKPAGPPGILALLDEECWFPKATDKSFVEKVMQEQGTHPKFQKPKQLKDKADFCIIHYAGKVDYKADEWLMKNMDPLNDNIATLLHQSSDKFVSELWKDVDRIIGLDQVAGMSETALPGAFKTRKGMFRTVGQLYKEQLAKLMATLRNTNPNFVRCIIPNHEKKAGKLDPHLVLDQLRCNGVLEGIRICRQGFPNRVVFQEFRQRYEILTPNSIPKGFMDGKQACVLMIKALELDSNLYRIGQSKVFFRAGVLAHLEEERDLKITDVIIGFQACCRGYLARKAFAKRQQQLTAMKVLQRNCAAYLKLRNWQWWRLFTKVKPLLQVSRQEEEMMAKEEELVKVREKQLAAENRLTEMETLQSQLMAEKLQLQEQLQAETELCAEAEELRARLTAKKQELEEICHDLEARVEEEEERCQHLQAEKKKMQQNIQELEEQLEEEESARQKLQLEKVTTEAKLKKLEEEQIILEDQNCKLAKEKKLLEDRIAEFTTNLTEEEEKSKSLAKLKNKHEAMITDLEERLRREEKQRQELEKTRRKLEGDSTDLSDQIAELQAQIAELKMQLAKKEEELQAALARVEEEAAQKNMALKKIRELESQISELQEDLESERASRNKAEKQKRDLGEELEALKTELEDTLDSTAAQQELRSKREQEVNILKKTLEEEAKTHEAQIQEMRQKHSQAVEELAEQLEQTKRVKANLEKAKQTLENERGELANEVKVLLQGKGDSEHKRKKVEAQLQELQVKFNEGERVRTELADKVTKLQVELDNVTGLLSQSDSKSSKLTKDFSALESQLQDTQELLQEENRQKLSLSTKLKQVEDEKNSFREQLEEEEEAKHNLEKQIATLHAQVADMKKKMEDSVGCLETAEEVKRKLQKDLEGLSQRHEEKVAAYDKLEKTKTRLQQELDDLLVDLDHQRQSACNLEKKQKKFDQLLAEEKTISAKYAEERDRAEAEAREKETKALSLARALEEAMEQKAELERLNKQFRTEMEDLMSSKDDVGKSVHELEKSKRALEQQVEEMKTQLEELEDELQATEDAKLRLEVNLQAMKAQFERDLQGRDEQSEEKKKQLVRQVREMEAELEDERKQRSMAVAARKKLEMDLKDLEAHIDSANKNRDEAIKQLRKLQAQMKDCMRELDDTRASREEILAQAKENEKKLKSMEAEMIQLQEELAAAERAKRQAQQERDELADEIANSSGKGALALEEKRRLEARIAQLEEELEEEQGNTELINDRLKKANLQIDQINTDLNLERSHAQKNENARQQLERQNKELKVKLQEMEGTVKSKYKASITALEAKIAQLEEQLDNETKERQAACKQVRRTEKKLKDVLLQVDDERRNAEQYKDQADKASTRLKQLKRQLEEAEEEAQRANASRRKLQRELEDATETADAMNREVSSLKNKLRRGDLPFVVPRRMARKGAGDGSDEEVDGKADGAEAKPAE
UniProt P36873, whole entry, looked up: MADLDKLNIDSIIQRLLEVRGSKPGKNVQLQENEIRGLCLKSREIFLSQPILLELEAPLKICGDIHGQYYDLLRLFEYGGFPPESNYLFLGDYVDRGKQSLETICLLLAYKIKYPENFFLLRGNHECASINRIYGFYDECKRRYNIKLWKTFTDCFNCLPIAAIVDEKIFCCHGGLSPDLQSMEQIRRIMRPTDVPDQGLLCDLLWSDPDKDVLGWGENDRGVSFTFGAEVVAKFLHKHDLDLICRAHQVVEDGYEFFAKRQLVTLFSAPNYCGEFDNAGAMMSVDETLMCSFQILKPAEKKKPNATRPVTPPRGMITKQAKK
UniProt P33981: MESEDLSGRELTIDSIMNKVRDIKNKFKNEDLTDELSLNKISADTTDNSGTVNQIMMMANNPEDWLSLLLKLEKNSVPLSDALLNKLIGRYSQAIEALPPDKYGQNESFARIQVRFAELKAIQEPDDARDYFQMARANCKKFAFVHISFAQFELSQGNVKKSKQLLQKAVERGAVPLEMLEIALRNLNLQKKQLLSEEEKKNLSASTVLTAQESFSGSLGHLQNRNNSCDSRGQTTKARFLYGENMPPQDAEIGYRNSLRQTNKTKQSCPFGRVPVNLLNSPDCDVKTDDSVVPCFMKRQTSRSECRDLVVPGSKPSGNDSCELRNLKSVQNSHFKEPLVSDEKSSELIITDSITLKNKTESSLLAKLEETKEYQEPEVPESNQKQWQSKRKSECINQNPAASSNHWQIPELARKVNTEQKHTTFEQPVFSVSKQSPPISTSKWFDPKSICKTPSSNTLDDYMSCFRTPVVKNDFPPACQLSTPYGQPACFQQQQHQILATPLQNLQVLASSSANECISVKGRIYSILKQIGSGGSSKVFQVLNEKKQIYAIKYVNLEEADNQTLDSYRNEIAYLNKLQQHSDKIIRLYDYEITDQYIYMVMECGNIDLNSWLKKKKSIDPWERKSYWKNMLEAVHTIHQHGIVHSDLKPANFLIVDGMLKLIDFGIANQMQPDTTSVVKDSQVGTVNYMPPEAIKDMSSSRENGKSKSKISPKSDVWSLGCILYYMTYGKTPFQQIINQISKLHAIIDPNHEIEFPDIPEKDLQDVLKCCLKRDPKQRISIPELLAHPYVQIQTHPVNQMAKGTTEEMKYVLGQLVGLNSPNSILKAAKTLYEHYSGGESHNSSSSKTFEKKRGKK
UniProt P31751: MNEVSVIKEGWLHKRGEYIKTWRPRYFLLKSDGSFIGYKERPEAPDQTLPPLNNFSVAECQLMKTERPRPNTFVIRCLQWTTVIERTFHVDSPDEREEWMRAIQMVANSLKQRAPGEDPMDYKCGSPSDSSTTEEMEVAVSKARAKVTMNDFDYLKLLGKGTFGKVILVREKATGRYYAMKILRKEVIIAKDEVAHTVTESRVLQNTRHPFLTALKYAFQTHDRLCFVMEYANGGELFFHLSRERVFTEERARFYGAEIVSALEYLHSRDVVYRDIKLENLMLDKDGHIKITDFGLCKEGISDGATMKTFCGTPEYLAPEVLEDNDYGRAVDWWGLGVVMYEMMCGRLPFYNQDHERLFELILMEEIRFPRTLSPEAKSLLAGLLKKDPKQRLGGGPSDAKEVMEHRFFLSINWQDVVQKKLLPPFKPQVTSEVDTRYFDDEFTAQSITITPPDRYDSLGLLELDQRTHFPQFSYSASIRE
UniProt P31350, whole entry: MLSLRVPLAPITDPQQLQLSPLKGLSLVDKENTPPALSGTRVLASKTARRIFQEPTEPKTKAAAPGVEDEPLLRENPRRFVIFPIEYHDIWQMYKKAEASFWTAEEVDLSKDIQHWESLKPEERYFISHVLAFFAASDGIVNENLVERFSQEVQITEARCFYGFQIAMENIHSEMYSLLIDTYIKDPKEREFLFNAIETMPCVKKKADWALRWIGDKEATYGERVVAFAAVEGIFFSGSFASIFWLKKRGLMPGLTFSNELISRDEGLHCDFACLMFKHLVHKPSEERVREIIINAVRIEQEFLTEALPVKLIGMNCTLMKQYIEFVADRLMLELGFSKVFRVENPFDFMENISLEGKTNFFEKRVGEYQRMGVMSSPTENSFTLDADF

Compound: COC(=O)C#Cc1ccccc1 [methyl 3-phenylpropiolate]
Assay: log2 ratio of iodoacetamide-alkyne labeling of the cysteine site, DMSO over compound (competition); higher = stronger covalent engagement of the cysteine by the compound, active = 1 or more
Settings: 500 µM; treatment time 1 h; system: HEK293T cell lysate
Method in brief: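 HEK293T lysate (2 mg/mL) was treated with DMSO or electrophile (500 µM, 1 h, ambient temperature), then iodoacetamide alkyne (1 h), clicked to sCIP-TMT reagents, pooled, trypsin-digested overnight at 37 °C, streptavidin-enriched and acid-eluted. Peptides were run on Orbitrap Eclipse LC-MS/MS with FAIMS and quantified in FragPipe. The log2 competition ratio per cysteine is mean control-channel over mean compound-channel reporter intensity. Duplicate channels and three replicates were used, and cysteines quantified in only one replicate were excluded.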

log2 ratio of iodoacetamide-alkyne labeling, inactive:
POLR2B C1093 (UniProt P30876) 0.608
CA8 C200 (UniProt P35219) -0.00308
RFC3 C11 (UniProt P40938) 0.16
ANP32A C123 (UniProt P39687) 0.345
HSPA4 C376 (UniProt P34932) -0.31
KIF5B C858 (UniProt P33176) 0.167
HSPA9 C366 (UniProt P38646) 0.191
COIL C170 (UniProt P38432) 0.546
EPS15 C657 (UniProt P42566) 0.516
RPL3 C336 (UniProt P39023) 0.0948
ATP6V1A C138 (UniProt P38606) 0.943
KIF5B C7 (UniProt P33176) 0.0873
STIP1 C461 (UniProt P31948) -0.0506
POLR2B C837 (UniProt P30876) 0.523
UniProt P42356_C246 0.65
ADD1 C430 (UniProt P35611) 0.555
FEN1 C141 (UniProt P39748) 0.541
TMPO C561 (UniProt P42166) 0.208
LRPPRC C113 (UniProt P42704) 0.0698
GTF2H1 C506 (UniProt P32780) 0.367
RPL4 C208 (UniProt P36578) 0.273
RFC3 C32 (UniProt P40938) 0.04
ATIC C241 (UniProt P31939) 0.274
RFC4 C48 (UniProt P35249) -0.199
IARS C526 (UniProt P41252) 0.0745
MATR3 C806 (UniProt P43243) 0.0964
PSMC2 C236 (UniProt P35998) 0.313
UniProt P41214_C271 0.279
HSPA9 C66 (UniProt P38646) 0.274
GPX4 C134 (UniProt P36969) -0.0445
MYH9 C917 (UniProt P35579) 0.103
PPP1CC C62 (UniProt P36873) -0.125
TTK C465 (UniProt P33981) 0.537
CUX1 C1040 (UniProt P39880) 0.877
AKT2 C311 (UniProt P31751) 0.471
FDFT1 C6 (UniProt P37268) 0.233
RRM2 C202 (UniProt P31350) 0.439

Reprinted from above (two entries):
log2 ratio of iodoacetamide-alkyne labeling, inactive:
ATP6V1A C138 (UniProt P38606) 0.943
KIF5B C7 (UniProt P33176) 0.0873
